Drawing on publication PMC5810440, “The Origins of Specificity in the Microcin-Processing Protease TldD/E” (Structure(London, England:1993), 2017), this text covers binding for one molecule.

For this experiment, the target named is T1, E. coli TldD/E heterodimer (wild-type, co-purified TldD-His/E complex) (E. coli) (UniProt P0AGG8+P0AFK0).
T1 sequence 1: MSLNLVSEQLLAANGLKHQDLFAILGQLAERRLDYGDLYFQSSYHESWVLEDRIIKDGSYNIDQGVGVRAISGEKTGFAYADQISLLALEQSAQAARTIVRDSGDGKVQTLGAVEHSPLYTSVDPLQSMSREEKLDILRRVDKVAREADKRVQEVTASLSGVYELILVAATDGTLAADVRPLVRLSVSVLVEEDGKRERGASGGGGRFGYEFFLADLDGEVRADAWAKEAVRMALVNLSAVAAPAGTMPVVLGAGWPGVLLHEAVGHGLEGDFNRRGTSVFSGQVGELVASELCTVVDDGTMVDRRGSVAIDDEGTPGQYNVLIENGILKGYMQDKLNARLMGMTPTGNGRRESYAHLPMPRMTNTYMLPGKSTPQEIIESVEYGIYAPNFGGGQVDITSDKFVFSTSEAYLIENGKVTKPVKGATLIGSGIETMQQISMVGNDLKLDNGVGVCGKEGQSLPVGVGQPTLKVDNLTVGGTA
T1 sequence 2: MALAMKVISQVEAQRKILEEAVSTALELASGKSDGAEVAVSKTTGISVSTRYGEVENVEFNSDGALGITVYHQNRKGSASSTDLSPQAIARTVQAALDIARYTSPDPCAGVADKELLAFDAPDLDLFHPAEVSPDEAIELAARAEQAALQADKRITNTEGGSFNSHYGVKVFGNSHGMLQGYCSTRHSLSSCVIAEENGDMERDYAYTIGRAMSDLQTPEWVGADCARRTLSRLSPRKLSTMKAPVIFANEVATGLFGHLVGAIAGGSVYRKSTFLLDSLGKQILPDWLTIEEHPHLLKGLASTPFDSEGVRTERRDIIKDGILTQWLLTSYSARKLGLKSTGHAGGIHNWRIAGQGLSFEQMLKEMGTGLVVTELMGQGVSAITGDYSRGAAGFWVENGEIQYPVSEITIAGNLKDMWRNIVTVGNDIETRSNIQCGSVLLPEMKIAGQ
Description: crystal structure; co-crystallisation of wild-type TldD/E with added peptide ligand at 2.5 mM, condition 2 (20% PEG 1500, 0.1 M MMT pH 8.0), microseeding; both purified.

No constants are given. Whether binding was seen depends on the method and setting. Some binding calls cover weakened binding; strength is not graded here. Sequences can lack the tags named with a protein.

Take DRVYIHPF (central (Tyr-Ile) peptide bond replaced with a non-cleavable methylene bond) [Angiotensin II analogue (DRVY-CH2-IHPF)]: the binding result was “binds”.
